Measurements as given in PMC8766426.
No constants are given. Whether binding was seen depends on the method and setting. Some binding calls cover weakened binding; strength is not graded here.

Amino acid sequences for entries named in this document (tags omitted). Residues count along the entry.
UniProt Q3UH93, residues 49-1925: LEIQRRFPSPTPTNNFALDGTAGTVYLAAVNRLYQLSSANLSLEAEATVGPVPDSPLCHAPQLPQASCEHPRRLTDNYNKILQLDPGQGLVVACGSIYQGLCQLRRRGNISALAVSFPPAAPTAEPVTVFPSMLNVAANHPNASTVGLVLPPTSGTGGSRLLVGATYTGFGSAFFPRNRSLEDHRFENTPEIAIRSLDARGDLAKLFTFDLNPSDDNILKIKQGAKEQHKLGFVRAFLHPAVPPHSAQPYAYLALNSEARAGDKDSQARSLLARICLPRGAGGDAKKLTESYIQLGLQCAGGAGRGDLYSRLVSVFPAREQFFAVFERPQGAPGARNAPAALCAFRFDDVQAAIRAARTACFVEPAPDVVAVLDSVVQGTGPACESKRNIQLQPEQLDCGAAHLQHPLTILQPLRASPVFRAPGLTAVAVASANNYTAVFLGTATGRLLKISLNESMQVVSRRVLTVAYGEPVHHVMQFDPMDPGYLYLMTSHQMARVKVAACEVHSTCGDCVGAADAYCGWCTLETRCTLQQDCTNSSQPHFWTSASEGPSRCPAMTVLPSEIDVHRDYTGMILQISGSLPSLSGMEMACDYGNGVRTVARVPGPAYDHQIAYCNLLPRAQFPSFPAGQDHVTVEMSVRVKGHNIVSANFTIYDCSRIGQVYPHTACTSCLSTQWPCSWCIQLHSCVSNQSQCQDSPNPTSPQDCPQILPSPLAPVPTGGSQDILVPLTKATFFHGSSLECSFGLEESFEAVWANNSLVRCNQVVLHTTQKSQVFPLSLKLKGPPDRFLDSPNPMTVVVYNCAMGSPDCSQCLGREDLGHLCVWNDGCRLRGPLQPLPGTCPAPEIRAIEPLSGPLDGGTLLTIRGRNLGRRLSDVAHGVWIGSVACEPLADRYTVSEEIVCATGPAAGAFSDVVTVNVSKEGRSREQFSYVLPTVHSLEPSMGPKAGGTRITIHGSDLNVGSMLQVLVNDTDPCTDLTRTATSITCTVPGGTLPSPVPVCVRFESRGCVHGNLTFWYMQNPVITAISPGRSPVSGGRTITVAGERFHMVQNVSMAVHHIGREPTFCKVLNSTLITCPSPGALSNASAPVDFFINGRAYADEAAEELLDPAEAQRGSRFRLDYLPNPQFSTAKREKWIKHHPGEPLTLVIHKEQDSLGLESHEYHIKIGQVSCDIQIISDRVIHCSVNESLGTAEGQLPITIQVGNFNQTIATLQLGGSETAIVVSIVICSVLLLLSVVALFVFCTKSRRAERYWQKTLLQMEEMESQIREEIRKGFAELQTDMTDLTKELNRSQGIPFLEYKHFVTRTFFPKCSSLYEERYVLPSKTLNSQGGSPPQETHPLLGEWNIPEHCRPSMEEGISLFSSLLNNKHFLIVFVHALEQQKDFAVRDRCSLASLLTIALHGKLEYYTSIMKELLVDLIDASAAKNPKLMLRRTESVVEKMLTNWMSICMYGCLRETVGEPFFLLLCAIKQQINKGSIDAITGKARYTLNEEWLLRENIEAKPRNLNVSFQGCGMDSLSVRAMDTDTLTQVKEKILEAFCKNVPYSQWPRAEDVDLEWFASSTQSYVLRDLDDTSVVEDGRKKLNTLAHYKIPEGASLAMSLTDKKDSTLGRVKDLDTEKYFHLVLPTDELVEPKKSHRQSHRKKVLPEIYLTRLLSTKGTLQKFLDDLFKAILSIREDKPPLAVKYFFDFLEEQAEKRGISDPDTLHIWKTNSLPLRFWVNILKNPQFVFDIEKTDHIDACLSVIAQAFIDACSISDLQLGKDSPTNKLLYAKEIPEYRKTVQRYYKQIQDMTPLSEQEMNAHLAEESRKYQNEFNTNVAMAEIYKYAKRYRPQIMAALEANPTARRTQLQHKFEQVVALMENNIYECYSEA

Molecular target: Plexin-D1 (mouse (endogenous in brain sections)) (UniProt Q3UH93)
Assay: alkaline phosphatase-ligand binding on tissue sections; 20-um mouse brain cryosections fixed in cold methanol; 2 nM AP-Sema3E in 1x PBS-MgCl2 plus 20 mM HEPES pH 7.0, 2 h at room temperature; heat inactivation at 65 C; AP developed with NBT/BCIP; sections of sham, post-tMCAo and Plxnd1 iECKO mice

B1: AP-conjugated Sema3E ligand (alkaline phosphatase-Semaphorin 3E) (ligand, UniProt P70275 26-775)
chain: ANPSYPRLRLSHKELLELNRTSIFQSPLGFLDLHTMLLDEYQERLFVGGRDLVYSLNLERVSDGYREIYWPSTAVKVEECIMKGKDANECANYIRVLHHYNRTHLLTCATGAFDPHCAFIRVGHHSEEPLFHLESHRSERGRGRCPFDPNSSFVSTLVGNELFAGLYSDYWGRDSAIFRSMGKLGHIRTEHDDERLLKEPKFVGSYMIPDNEDRDDNKMYFFFTEKALEAENNAHTIYTRVGRLCVNDMGGQRILVNKWSTFLKARLVCSVPGMNGIDTYFDELEDVFLLPTRDPKNPVIFGLFNTTSNIFRGHAVCVYHMSSIREAFNGPYAHKEGPEYHWSLYEGKVPYPRPGSCASKVNGGKYGTTKDYPDDAIRFARMHPLMYQPIKPVHKKPILVKTDGKYNLRQLAVDRVEAEDGQYDVLFIGTDTGIVLKVITIYNQETEWMEEVILEELQIFKDPAPIISMEISSKRQQLYIGSASAVAQVRFHHCDMYGSACADCCLARDPYCAWDGISCSRYYPTGAHAKRRFRRQDVRHGNAAQQCFGQQFVGDALDRTEERLAYGIESNSTLLECTPRSLQAKVIWFVQKGRDVRKEEVKTDDRVVKMDLGLLFLRVRKSDAGTYFCQTVEHNFVHTVRKITLEVVEEHKVEGMFHKDHEEERHHKMPCPPLSGMSQGTKPWYKEFLQLIGYSNFQRVEEYCEKVWCTDKKRKKLKMSPSKWKYANPQEKRLRSKAEHFRLPRHTLLS
binding: binds
